Measured values as given in publication PMC10587083.
These are yes or no findings as the source states them, for the method shown. Binding seen in cells or lysates may run through a third protein. Here binding means that the protein was enriched with, or labelled near, the bait; the list need not be complete. A no says only that the protein was not detected with the bait.

The chains behind the UniProt entries cited, without tags or fusion partners. Residues count along the entry.
UniProt O43567, residues 35-381: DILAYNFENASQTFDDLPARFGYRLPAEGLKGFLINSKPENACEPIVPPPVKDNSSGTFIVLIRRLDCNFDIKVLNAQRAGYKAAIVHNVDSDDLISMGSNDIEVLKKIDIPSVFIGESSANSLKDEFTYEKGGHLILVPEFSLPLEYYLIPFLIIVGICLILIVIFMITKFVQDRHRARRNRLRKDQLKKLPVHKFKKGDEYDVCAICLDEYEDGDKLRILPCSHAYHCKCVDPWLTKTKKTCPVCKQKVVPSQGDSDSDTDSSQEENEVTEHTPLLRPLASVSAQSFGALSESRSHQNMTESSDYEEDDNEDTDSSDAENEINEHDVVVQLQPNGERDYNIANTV
UniProt Q9NZJ5, residues 30-1116: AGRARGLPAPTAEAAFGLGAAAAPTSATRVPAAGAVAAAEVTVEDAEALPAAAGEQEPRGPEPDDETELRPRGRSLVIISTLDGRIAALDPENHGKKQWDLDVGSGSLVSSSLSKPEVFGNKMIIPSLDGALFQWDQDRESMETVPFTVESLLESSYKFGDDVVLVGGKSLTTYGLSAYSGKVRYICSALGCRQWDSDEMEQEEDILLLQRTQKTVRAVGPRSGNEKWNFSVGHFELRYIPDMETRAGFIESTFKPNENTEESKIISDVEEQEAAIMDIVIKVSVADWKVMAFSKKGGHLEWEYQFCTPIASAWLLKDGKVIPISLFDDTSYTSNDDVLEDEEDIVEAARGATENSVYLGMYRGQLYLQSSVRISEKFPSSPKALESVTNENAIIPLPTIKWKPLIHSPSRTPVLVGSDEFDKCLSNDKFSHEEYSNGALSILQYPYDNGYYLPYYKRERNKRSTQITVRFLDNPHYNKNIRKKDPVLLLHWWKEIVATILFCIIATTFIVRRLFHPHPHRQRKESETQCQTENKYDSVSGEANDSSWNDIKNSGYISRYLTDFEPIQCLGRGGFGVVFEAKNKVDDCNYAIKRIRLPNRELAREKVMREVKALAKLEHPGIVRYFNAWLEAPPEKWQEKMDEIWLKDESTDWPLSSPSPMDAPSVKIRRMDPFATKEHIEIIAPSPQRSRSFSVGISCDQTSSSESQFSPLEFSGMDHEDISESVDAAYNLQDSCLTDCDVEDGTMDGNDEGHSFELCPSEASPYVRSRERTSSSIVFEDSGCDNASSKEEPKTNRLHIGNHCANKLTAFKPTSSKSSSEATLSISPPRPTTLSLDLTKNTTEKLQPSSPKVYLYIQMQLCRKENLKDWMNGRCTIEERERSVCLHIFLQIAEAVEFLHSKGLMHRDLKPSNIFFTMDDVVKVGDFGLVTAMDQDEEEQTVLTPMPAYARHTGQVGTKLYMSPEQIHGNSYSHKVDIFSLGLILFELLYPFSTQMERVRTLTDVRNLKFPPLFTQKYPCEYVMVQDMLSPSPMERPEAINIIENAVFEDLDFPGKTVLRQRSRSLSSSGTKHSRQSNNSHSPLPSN
UniProt Q86WV6: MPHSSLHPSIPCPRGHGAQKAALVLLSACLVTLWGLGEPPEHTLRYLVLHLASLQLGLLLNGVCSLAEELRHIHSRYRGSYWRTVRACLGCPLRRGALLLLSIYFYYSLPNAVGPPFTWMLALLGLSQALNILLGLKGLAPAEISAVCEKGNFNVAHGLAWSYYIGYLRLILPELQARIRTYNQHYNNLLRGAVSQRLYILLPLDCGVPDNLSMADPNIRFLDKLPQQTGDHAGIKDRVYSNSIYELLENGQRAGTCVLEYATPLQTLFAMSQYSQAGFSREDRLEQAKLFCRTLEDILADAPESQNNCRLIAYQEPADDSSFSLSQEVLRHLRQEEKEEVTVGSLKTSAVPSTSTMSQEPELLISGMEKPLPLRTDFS
UniProt P18850: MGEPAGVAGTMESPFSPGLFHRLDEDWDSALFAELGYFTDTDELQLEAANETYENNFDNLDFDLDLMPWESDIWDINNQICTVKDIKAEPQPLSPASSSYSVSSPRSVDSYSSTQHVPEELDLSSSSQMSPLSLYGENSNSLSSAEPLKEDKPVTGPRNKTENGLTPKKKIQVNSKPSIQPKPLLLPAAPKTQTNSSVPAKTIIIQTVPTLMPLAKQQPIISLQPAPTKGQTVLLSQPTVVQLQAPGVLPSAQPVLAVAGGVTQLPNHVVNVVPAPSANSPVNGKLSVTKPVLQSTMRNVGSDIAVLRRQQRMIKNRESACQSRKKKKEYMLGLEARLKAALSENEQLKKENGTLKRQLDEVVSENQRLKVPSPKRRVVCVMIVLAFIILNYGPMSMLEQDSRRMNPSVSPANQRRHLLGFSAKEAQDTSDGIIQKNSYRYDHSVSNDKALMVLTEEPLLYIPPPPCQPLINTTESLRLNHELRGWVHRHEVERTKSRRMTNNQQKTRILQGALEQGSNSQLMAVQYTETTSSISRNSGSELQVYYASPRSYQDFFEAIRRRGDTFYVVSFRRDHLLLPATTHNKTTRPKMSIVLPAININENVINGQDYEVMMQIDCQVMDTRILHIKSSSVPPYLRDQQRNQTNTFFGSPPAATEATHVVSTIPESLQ
UniProt O75460, residues 19-977: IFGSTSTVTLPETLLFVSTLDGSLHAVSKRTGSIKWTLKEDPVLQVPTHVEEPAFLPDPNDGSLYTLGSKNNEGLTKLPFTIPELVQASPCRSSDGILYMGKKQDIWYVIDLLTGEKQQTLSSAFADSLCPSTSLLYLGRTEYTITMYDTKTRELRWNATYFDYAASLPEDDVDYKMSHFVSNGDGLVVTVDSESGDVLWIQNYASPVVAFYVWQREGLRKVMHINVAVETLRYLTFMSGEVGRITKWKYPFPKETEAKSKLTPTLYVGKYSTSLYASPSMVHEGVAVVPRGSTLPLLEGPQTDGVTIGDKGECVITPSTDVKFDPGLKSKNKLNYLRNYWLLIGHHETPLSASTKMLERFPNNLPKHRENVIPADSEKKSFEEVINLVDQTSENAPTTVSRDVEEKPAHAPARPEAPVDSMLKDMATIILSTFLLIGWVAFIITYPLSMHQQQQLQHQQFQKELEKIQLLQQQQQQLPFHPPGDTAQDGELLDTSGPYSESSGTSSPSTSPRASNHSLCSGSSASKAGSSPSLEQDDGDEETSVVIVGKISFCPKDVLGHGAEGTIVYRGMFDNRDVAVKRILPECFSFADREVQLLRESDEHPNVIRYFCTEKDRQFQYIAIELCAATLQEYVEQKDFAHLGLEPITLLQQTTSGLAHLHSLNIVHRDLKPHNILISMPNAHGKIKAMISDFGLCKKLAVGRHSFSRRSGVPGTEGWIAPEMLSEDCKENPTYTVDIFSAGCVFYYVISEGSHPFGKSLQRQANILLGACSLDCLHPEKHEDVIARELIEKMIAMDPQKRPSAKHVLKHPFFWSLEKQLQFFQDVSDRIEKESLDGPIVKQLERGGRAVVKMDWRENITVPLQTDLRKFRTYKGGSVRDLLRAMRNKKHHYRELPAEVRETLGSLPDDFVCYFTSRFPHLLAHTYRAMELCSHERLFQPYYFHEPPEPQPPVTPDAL

B1: TRIM29 (hit of the RNF13 IP-MS) (protein, UniProt Q14134 1-588)
chain: MEAADASRSNGSSPEARDARSPSGPSGSLENGTKADGKDAKTTNGHGGEAAEGKSLGSALKPGEGRSALFAGNEWRRPIIQFVESGDDKNSNYFSMDSMEGKRSPYAGLQLGAAKKPPVTFAEKGELRKSIFSESRKPTVSIMEPGETRRNSYPRADTGLFSRSKSGSEEVLCDSCIGNKQKAVKSCLVCQASFCELHLKPHLEGAAFRDHQLLEPIRDFEARKCPVHGKTMELFCQTDQTCICYLCMFQEHKNHSTVTVEEAKAEKETELSLQKEQLQLKIIEIEDEAEKWQKEKDRIKSFTTNEKAILEQNFRDLVRDLEKQKEEVRAALEQREQDAVDQVKVIMDALDERAKVLHEDKQTREQLHSISDSVLFLQEFGALMSNYSLPPPLPTYHVLLEGEGLGQSLGNFKDDLLNVCMRHVEKMCKADLSRNFIERNHMENGGDHRYVNNYTNSFGGEWSAPDTMKRYSMYLTPKGGVRTSYQPSSPGRFTKETTQKNFNNLYGTKGNYTSRVWEYSSSIQNSDNDLPVVQGSSSFSLKGYPSLMRSQSPKAQPQTWKSGKQTMLSHYRPFYVNKGNGIGSNEAP

molecular target: HA-RNF13 (RING finger protein 13) (UniProt O43567); test: affinity purification with mass spectrometry; anti-HA immunoprecipitate against anti-IgG immunoprecipitate from transfected cells; eluate on SDS-PAGE, silver stain, bands cut out, LC-MS/MS; candidates present in anti-HA, absent in anti-IgG, unique peptides > 2

binding	Molecule
no binding	PERK (from UniProt Q9NZJ5 30-1116)
no binding	STING (sought in the RNF13 IP-MS) (from UniProt Q86WV6 1-379)
no binding	ATF6 (from UniProt P18850 1-670)
no binding	IRE1 (from UniProt O75460 19-977)
binds	B1
